Key:
[1] = Physical form stability / conversion to Form 1; assay type: physicochemical
Procedure: The suspension was heated with a heat gun to dissolve most of the solids, and then left to slowly cool to room temperature. The resultant crystals were filtered and analysed by DSC, TGA, and XRPD.
Amorphous gepotidacin mesylate can be generated via lyophilization. Form 1 (150 mg) was dissolved MeCN/water (80/20 v/v; 1 mL). A clarifying filtration was performed and the filtrate was added to a 20 mL vial. The solution was frozen under liquid nitrogen and lyophilized for 4 hours.

[2] = Polymorphs and water activity: forms observed in water/IPA mixtures; assay type: physicochemical; details: w/w water content in IPA, estimated using solubility and KF data

CC(C)O.CS(=O)(=O)O.O.O.O=c1ccc2ncc(=O)n3c2n1C[C@H]3CN1CCC(NCc2cc3c(cn2)OCCC3)CC1
time to convert to Form 1 ([1]; 5% aqueous IPA, 20° C.): ≤ 3 h | conversion to Form 1 ([1]; in the suspension (3% Aq v/v IPA) and upon isolation): gradually convert to Form 1

CS(=O)(=O)O.O.O.O=c1ccc2ncc(=O)n3c2n1C[C@H]3CN1CCC(NCc2cc3c(cn2)OCCC3)CC1 [Gepotidacin mesylate anhydrate (Form 2)]
water content boundaries within which the form was observed ([2]; 20-25° C.): < 1.147 % w/w | water content boundaries within which the form was observed ([2]; 61° C.): < 2.694 % w/w
